No constants are given. Whether binding was seen depends on the method and setting. For part of these data: Binding seen in cells or lysates may run through a third protein. Some entries that bind do so weakly or less than the wild type. For part of these data: Sequences can lack the tags named with a protein.
T1: GST::MKLP1(620-856) (UniProt Q02241)
T1 sequence: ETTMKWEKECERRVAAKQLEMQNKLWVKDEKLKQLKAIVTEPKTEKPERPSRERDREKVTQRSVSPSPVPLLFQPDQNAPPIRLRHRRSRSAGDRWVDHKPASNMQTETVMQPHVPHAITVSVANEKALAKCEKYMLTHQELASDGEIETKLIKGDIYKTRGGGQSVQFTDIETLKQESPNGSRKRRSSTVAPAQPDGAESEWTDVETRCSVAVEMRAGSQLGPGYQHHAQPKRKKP

The chains behind the UniProt entries cited, without tags or fusion partners.
UniProt Q15058: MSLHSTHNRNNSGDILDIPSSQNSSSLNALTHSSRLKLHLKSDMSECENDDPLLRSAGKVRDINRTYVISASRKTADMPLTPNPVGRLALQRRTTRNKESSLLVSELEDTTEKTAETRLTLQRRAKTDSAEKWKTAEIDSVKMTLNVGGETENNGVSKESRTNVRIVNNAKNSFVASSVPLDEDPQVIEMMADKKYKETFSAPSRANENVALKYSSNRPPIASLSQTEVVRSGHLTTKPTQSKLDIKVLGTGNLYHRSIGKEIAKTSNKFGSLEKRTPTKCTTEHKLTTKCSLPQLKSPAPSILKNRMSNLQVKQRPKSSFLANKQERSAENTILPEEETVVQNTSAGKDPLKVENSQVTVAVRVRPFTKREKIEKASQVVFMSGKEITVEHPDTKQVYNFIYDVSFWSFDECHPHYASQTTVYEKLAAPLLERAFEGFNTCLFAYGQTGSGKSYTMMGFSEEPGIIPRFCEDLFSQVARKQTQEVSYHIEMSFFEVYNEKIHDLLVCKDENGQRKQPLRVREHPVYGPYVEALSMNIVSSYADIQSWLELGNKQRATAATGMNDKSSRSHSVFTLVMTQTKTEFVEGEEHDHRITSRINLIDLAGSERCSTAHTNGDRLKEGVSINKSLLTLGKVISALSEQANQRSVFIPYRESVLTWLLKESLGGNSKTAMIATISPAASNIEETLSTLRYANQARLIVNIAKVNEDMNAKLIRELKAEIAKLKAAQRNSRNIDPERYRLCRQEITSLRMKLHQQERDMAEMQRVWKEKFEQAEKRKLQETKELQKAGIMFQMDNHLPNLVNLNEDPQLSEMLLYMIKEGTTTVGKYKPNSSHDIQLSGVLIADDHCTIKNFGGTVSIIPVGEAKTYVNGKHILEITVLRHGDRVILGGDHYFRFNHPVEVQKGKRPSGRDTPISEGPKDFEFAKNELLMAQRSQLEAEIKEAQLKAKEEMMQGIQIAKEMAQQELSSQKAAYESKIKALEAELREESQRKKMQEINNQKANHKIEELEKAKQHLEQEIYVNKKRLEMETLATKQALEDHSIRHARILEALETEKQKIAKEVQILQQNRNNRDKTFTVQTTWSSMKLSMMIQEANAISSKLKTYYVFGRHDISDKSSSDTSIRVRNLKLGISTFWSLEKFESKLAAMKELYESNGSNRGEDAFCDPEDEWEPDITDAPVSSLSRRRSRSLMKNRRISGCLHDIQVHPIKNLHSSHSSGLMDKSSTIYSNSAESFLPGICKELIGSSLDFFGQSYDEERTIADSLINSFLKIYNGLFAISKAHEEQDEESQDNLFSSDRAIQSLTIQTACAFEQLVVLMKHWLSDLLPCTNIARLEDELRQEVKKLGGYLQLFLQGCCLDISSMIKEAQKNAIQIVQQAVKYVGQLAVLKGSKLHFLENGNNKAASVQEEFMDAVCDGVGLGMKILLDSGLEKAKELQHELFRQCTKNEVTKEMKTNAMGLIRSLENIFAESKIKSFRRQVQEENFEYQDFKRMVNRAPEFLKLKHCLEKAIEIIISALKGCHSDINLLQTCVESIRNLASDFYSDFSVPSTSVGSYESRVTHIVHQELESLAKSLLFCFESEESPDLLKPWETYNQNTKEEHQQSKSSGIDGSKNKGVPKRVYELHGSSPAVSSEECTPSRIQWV
UniProt Q96GD4: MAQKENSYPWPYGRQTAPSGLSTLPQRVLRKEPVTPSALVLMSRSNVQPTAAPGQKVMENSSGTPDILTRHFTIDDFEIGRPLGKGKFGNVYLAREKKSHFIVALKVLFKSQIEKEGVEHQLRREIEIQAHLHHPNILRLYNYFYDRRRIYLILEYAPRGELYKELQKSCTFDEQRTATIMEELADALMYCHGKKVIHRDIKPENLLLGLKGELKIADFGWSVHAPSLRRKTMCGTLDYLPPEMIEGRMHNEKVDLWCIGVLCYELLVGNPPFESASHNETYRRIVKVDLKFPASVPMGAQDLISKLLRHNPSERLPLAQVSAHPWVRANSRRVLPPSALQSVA


How the values were obtained:
[1] = target: GFP-tagged Citron kinase (CIT-K), wild type transgene (human) (UniProt O14578); experiment: co-IP
[2] = target: GFP-tagged Citron kinase (CIT-K) S699A, phospho-dead mutant (human) (UniProt O14578); experiment: co-IP
[3] = target: GFP-tagged Citron kinase (CIT-K) S440A, phospho-dead mutant (human) (UniProt O14578); experiment: co-IP
GST::MKLP1(620-856) = target: T1, GST::MKLP1(620-856); experiment: pull-down

Molecule | binding [1] | binding [2] | binding [3] | binding (GST::MKLP1(620-856))
KIF14 (from UniProt Q15058 1-1648) | binds | binds | binds | –
MBP::CIT-K(586-785) (from UniProt O14578-4 586-785) (domain or fragment) | – | – | – | binds
MKLP1/KIF23 (protein, UniProt Q02241 1-960) MKSARAKTPRKPTVKKGSQTNLKDPVGVYCRVRPLGFPDQECCIEVINNTTVQLHTPEGYRLNRNGDYKETQYSFKQVFGTHTTQKELFDVVANPLVNDLIHGKNGLLFTYGVTGSGKTHTMTGSPGEGGLLPRCLDMIFNSIGSFQAKRYVFKSNDRNSMDIQCEVDALLERQKREAMPNPKTSSSKRQVDPEFADMITVQEFCKAEEVDEDSVYGVFVSYIEIYNNYIYDLLEEVPFDPIKPKPPQSKLLREDKNHNMYVAGCTEVEVKSTEEAFEVFWRGQKKRRIANTHLNRESSRSHSVFNIKLVQAPLDADGDNVLQEKEQITISQLSLVDLAGSERTNRTRAEGNRLREAGNINQSLMTLRTCMDVLRENQMYGTNKMVPYRDSKLTHLFKNYFDGEGKVRMIVCVNPKAEDYEENLQVMRFAEVTQEVEVARPVDKAICGLTPGRRYRNQPRGPVGNEPLVTDVVLQSFPPLPSCEILDINDEQTLPRLIEALEKRHNLRQMMIDEFNKQSNAFKALLQEFDNAVLSKENHMQGKLNEKEKMISGQKLEIERLEKKNKTLEYKIEILEKTTTIYEEDKRNLQQELETQNQKLQRQFSDKRRLEARLQGMVTETTMKWEKECERRVAAKQLEMQNKLWVKDEKLKQLKAIVTEPKTEKPERPSRERDREKVTQRSVSPSPVPLSSNYIAQISNGQQLMSQPQLHRRSNSCSSISVASCISEWEQKIPTYNTPLKVTSIARRRQQEPGQSKTCIVSDRRRGMYWTEGREVVPTFRNEIEIEEDHCGRLLFQPDQNAPPIRLRHRRSRSAGDRWVDHKPASNMQTETVMQPHVPHAITVSVANEKALAKCEKYMLTHQELASDGEIETKLIKGDIYKTRGGGQSVQFTDIETLKQESPNGSRKRRSSTVAPAQPDGAESEWTDVETRCSVAVEMRAGSQLGPGYQHHAQPKRKKP | binds | binds | binds | –

Continued, values first:

binding [1] | binding [2] | binding [3] | binding (GST::MKLP1(620-856)) | Molecule
binds | binds | binds | – | Aurora B kinase (AURKB) (from UniProt Q96GD4 1-344)
– | – | – | binds | MBP::CIT-K(586-785) phosphorylated in vitro by Aurora B (pS699) (from UniProt O14578-4 586-785) (domain or fragment)
– | – | – | no binding | MBP::CIT-K(420-585) (domain or fragment, human, UniProt O14578-4 420-585, looked up) SYSKALGILGRSESVVSGLDSPAKTSSMEKKLLIKSKELQDSQDKCHKMEQEMTRLHRRVSEVEAVLSQKEVELKASETQRSLLEQDLATYITECSSLKRSLEQARMEVSQEDDKALQLLHDIREQSRKLQEIKEQEYQAQVEEMRLMMNQLEEDLVSARRRSDLY

— doi:10.1101/2025.08.25.672096 (bioRxiv, 2025)
